Assay results from US20190194322A1.
No constants are given. Whether binding was seen depends on the method and setting. Some binding calls cover weakened binding; strength is not graded here.

Protein sequences, listed by entry. Tags and fused reporters are not part of them. Lines headed by an entry give the natural chain unless they say otherwise; changes in a name come on top.
UniProt Q9H7M9: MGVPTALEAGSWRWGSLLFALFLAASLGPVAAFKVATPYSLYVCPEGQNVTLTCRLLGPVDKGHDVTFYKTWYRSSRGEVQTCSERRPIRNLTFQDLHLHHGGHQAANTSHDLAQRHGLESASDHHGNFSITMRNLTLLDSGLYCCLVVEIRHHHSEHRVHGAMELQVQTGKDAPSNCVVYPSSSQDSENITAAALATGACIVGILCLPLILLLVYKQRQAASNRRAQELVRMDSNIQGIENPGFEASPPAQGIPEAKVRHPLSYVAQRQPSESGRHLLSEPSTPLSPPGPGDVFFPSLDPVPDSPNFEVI

How the values were obtained:
[1] = biological target: Recombinant human VSIG3 Fc Chimera (human (homo sapiens)); test: AVEXIS (FIG. 12B legend)
[2] = biological target: Recombinant human VSIG3 Fc Chimera (human (homo sapiens)); test: AVEXIS, VSIG3 Fc-fusion bait on protein A plate, VISTA-COMP-AP prey, A650 with BluePhos (FIG. 12B)

- binding [1]: binds
- binding [2]: binds
Substance: VISTA ectodomain coupled to pentamerizing rat COMP helix and alkaline phosphatase (AVEXIS prey) (from UniProt Q9H7M9 33-194; P35444 28-72)
